From patent US20260035464A1
These are yes or no findings as the source states them, for the method shown. Some binding calls cover weakened binding; strength is not graded here.

Amino acid sequences for entries named in this document (tags omitted). A change or cut given only in a name is not applied to a line headed by its entry. Residues count along the entry.
UniProt Q7Z6A9, residues 31-289: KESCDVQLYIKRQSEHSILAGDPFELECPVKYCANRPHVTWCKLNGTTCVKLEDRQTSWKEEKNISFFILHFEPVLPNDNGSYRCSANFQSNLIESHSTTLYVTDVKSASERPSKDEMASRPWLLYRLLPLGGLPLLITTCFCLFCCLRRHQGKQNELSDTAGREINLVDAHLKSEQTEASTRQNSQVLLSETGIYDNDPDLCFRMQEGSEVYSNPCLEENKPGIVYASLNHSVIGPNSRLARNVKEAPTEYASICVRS
UniProt Q80WM9, residues 39-206: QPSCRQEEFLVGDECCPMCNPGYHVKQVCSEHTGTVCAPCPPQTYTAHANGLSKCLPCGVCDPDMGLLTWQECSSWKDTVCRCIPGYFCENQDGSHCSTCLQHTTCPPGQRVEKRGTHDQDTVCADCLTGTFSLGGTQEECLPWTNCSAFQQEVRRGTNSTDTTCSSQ

Legend:
[1] = target: human BTLA (Uniprot Q7Z6A9) expressed on cells (human) (UniProt Q7Z6A9); test: flow cytometry, His-mouse HVEM on Expi293-huBTLA cells, PE anti-His
[2] = target: human BTLA (Uniprot Q7Z6A9) expressed on cells (human) (UniProt Q7Z6A9); test: flow cytometry, His-mouse HVEM on Expi293-huBTLA cells, PE anti-His antibody, MFI

binding [1]: binds
binding [2]: binds
Substance: His-mouse HVEM protein (Sino Biological, cat #10567-M03H) (from UniProt Q80WM9 39-206) (ligand)
